Measured values from PMC5679597.
No constants are given. Whether binding was seen depends on the method and setting. In cells and extracts the contact can be indirect. For some assays here: Binding can be weak; no strength is given. Where a sequence is shown, tags or fusion partners need not be part of it.

Protein sequences, listed by entry. Tags and fused reporters are not part of them. Lines headed by an entry give the natural chain unless they say otherwise; changes in a name come on top.
UniProt Q13136: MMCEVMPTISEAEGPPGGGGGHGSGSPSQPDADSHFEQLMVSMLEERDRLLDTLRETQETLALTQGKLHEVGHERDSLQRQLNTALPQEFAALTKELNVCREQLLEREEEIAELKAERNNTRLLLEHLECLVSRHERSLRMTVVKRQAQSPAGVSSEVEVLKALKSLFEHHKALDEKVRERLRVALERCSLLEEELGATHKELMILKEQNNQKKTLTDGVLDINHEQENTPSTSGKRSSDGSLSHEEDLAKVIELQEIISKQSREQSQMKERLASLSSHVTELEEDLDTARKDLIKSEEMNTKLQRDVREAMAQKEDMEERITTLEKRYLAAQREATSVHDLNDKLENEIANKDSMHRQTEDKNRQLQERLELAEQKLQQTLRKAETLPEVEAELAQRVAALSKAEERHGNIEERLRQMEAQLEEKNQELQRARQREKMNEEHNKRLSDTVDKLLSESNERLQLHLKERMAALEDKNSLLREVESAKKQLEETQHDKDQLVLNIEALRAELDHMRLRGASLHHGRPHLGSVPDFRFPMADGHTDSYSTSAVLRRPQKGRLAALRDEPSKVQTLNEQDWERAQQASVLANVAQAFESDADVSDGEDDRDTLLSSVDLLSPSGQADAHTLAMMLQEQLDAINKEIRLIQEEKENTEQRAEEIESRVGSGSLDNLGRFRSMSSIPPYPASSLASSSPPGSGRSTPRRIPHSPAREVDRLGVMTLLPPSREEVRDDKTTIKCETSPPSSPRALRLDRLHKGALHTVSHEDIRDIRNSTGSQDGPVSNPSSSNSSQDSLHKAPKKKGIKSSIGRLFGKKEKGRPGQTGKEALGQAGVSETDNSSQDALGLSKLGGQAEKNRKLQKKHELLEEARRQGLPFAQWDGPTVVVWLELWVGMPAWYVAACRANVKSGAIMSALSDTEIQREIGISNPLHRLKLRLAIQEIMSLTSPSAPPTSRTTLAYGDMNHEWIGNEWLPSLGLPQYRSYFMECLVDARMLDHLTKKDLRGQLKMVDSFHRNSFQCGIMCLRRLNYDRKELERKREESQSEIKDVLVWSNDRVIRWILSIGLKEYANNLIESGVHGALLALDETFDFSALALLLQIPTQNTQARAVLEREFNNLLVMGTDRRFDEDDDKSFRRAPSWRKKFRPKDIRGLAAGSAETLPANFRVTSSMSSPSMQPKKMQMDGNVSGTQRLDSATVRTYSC

Assays:
[1] = target: T1, GFP-LNX1 PDZ2 (aa377-470) (mouse) (UniProt O70263); assay: pull-down; GFP pull-down: GFP-tagged LNX constructs transfected into HEK 293 cells (HEK 293T in Fig 3A) alone or with the partner, captured on GFP-Trap_M beads, western blot; NaCl in the wash up to 500 mM in some cases
T1 sequence: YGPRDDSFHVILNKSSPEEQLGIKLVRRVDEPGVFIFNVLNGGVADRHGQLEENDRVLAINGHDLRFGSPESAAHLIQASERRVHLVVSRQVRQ

[2] = target: T2, GFP-tagged MID2 (human) (UniProt Q9UJV3); assay: pull-down; GFP pull-down of GFP-tagged MID2 from cells co-transfected with untagged LNX1p70 and FLAG-liprin-α1, western blot
T2 sequence: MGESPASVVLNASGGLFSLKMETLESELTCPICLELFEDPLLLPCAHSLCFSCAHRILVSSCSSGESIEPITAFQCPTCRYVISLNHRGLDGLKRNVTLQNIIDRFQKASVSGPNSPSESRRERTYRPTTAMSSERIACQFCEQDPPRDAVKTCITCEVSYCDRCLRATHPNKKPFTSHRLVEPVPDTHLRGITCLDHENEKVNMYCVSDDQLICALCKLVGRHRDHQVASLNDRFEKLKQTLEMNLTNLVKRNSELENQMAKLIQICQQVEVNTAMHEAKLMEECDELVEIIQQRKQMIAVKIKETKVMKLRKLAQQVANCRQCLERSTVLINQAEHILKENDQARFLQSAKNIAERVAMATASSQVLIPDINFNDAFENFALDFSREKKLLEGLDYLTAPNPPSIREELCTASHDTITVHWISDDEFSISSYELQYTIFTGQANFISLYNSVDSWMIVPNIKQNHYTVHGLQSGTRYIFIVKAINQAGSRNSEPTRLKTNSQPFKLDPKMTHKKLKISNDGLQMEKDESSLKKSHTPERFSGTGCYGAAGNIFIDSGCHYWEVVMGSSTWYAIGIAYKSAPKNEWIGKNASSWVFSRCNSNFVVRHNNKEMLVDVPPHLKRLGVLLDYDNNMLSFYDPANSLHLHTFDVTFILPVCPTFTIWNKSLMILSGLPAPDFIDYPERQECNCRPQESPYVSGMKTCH

binding [1] | binding [2] | Substance
no binding | – | FLAG-liprin-α1-C-mut (carboxyl-terminal YSC* to DSE*) (from UniProt Q13136)
– | binds | untagged LNX1p70
